The assay deals with T1, PSAG (Chlamydomonas reinhardtii) (UniProt P14224).
T1 sequence: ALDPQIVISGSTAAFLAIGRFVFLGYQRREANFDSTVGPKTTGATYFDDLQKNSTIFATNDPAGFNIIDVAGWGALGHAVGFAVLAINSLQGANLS
Nature of the assay: cross-linking; isolated PSI-LHCI supercomplex preparation (0.2 mg Chl/mL, 200 mM HEPES-NaOH pH 8, 0.05% beta-DDM) treated with 0.5 mM DSG on ice for 2 h; product identified by immunoblotting. (In general: A western blot detects proteins with antibodies after separation by electrophoresis.)

Results are given in words; binding and its absence hold for the method and conditions named. In cells and extracts the contact can be indirect. A result given as binding can be weak or reduced; the word gives no strength.

In the case of LHCA1 (Chlamydomonas reinhardtii), the binding entry was “binds”.

Source of the values: publication PMC6181050.
